Test results as given in paper PMC9215249.
These are yes or no findings as the source states them, for the method shown. Binding seen in cells or lysates may run through a third protein. Some entries that bind do so weakly or less than the wild type. For some of these results: Tags and fused reporters may be left off the sequences shown. Values belong to the molecule of their own block, whether it stands above or below them.

Chains of the proteins cited; added tags and fusions are not shown.
UniProt Q7Z434: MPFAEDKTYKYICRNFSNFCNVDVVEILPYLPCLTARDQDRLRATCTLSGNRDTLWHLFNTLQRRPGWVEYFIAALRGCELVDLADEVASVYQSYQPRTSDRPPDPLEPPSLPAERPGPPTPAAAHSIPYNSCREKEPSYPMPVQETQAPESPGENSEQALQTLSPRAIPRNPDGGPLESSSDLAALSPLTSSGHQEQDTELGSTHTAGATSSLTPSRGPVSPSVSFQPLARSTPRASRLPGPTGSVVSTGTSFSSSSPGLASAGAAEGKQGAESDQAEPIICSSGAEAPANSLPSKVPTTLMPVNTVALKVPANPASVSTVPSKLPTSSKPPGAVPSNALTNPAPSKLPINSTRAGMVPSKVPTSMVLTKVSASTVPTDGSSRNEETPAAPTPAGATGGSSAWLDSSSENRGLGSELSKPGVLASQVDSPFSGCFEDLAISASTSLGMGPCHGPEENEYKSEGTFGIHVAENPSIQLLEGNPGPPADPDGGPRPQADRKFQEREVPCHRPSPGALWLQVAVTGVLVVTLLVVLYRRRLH

Tests used:
[1] = molecular target: T1, annexin-A1 (ANXA1), endogenous (human (endogenous in HeLa and HEK293T)) (UniProt P04083); experiment: co-IP; endogenous proteins in HEK293T cell lysates; IP with anti-ANXA1 antibody
T1 sequence: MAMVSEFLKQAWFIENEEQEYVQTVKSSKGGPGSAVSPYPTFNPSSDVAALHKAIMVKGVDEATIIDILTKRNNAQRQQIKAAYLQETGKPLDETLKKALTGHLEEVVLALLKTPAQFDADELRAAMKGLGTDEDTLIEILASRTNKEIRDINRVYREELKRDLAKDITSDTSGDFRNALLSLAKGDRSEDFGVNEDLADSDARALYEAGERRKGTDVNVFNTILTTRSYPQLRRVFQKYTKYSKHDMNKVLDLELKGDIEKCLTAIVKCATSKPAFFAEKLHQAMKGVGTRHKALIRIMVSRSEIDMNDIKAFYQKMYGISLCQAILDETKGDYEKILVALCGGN

[2] = molecular target: T1, annexin-A1 (ANXA1), endogenous (human (endogenous in HeLa and HEK293T)); experiment: co-IP; endogenous proteins in HeLa cell lysates; IP with anti-ANXA1, anti-VISA or anti-TBK1 antibodies, immunoblot
[3] = molecular target: T2, myc-ANXA1 (porcine (cDNA from PK15 cells)) (UniProt P19619); experiment: co-IP
T2 sequence: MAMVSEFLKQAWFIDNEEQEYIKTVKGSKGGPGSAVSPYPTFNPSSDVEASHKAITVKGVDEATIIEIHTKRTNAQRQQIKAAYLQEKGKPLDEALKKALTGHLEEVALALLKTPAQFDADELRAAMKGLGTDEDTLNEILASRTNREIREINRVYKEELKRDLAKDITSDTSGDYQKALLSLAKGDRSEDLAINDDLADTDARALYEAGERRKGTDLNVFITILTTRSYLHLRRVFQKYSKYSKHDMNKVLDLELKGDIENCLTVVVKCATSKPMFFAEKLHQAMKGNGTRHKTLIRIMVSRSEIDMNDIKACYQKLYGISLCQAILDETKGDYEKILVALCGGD

B1: TBK1, endogenous (protein, UniProt Q9UHD2 1-729)
chain: MQSTSNHLWLLSDILGQGATANVFRGRHKKTGDLFAIKVFNNISFLRPVDVQMREFEVLKKLNHKNIVKLFAIEEETTTRHKVLIMEFCPCGSLYTVLEEPSNAYGLPESEFLIVLRDVVGGMNHLRENGIVHRDIKPGNIMRVIGEDGQSVYKLTDFGAARELEDDEQFVSLYGTEEYLHPDMYERAVLRKDHQKKYGATVDLWSIGVTFYHAATGSLPFRPFEGPRRNKEVMYKIITGKPSGAISGVQKAENGPIDWSGDMPVSCSLSRGLQVLLTPVLANILEADQEKCWGFDQFFAETSDILHRMVIHVFSLQQMTAHKIYIHSYNTATIFHELVYKQTKIISSNQELIYEGRRLVLEPGRLAQHFPKTTEENPIFVVSREPLNTIGLIYEKISLPKVHPRYDLDGDASMAKAITGVVCYACRIASTLLLYQELMRKGIRWLIELIKDDYNETVHKKTEVVITLDFCIRNIEKTVKVYEKLMKINLEAAELGEISDIHTKLLRLSSSQGTIETSLQDIDSRLSPGGSLADAWAHQEGTHPKDRNVEKLQVLLNCMTEIYYQFKKDKAERRLAYNEEQIHKFDKQKLYYHATKAMTHFTDECVKKYEAFLNKSEEWIRKMLHLRKQLLSLTNQCFDIEEEVSKYQEYTNELQETLPQKMFTASSGIKHTMTPIYPSSNTLVEMTLGMKKLKEEMEGVVKELAENNHILERFGSLTMDGGLRNVDCL
binding [2]: binds

B2: Flag-STAT1 (protein, UniProt Q764M5 1-753)
chain: MSQWYELQQLDSKFLEQVHQLYDDSFPMEIRQYLAQWLENQDWEHAANDVSFATIRFHDLLSQLDDQYSRFSLENNFLLQHNIRKSKRNLQDNFQEDPIQMSMIICNCLKEERKILENAQRFNQTQSGNIQSTVMLDKHKELDSKVRNVKDKVMCIEHEIKTLEDLQDEYDFKCKTLQNREHDTNGVAKNDQKQEQMLLQKMYLMLDNKRKEVVHKIIELLNVTELTQKALINDELVEWKRRQQSACIGGPPNACLDQLQNWFTIVAESLQQVRQQLKKLEELEQKYTYEHDPITKNKQALWDRTFSLFQQLIQSSFVVERQPCMPTHPQRPLVLKTGVQFTVKLRLLVKLQELNYNLKVKVLFDKDVSERNTVKGFRKFNILGTHTKVMNMEESTNGSLAAEFRHLQLKEQKNAGARTNEGPLIVTEELHSLSFETQLCQPGLVIDLETTSLPVVVISNVSQLPSGWASILWYNMLVAEPRNLSFFLNPPCARWSQLSEVLSWQFSSVTKRGLNVDQLNMLGEKLLGPTAGPDGLIPWTRFCKENINDKNFPFWLWIESILELIKKHLLSLWNDGCIVGFISKERERALLKDQQPGTFLLRFSESCREGAITFTWVERSQNGGEPYFHAVEPYTKKELSAVTFPDIIRNYKVMAAENIPENPLKYLYPNIDKDHAFGKYYSRPKEAPEPMELDGPKGTGYIKTELISVSEVHPSRLQTTDNLLPMSPEEFDEVSRMVGPVEFDMVSMTRGRS
binding [3]: binds

Results, then the molecule that gave them:

binding [1]: binds
Molecule: STAT1, endogenous (from UniProt P42224 1-750)

binding [2]: binds
Molecule: VISA, endogenous (from UniProt Q7Z434 1-540)
